Reference: publication PMC4109838
Where a chain is given by its changes, count along the chain named. Results are given in words; binding and its absence hold for the method and conditions named. Binding seen in cells or lysates may run through a third protein. Some results given as binding are weak or reduced against the parent protein; the word gives no strength. Where a sequence is shown, tags or fusion partners need not be part of it.

Amino acid sequences for entries named in this document (tags omitted). A change or cut given only in a name is not applied to a line headed by its entry.
UniProt O14974: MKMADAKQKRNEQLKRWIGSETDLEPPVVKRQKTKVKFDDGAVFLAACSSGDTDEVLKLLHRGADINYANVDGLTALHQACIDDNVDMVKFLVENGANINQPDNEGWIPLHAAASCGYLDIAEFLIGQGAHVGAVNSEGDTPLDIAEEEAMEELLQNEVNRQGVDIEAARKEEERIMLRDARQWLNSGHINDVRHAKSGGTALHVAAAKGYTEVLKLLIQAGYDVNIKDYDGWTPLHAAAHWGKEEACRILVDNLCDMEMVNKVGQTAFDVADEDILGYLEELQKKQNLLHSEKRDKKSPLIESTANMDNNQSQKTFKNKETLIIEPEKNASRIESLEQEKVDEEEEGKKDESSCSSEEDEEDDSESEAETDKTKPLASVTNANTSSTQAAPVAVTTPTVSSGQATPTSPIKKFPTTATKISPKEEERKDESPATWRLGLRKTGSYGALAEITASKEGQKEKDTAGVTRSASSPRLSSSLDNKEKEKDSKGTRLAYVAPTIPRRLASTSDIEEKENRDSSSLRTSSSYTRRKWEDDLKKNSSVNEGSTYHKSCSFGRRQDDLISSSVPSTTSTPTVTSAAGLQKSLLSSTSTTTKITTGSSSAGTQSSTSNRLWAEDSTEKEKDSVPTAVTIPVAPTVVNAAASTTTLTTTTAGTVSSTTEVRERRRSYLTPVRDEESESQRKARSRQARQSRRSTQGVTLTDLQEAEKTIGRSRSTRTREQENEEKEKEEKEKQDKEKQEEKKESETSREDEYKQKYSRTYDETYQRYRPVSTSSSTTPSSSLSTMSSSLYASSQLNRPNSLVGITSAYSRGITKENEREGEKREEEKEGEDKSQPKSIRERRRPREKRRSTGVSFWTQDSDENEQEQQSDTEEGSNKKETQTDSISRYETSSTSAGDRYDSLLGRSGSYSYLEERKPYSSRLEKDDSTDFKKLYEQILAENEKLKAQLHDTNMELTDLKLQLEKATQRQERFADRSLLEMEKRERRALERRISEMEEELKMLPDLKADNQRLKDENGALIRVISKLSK

What was measured:
[1] = biological target: T1, HA–NUAK1 (wild type), stably overexpressed in U2OS Flp/In cells (human) (UniProt O60285); experiment: co-IP; HA–NUAK1 immunoprecipitated from lysate of U2OS Flp/In cells stably overexpressing it, immunoblot; empty-vector cells as negative control; in Figure 4C cells treated with inhibitors (BI2536, GSK461364) for 1 h
T1 sequence: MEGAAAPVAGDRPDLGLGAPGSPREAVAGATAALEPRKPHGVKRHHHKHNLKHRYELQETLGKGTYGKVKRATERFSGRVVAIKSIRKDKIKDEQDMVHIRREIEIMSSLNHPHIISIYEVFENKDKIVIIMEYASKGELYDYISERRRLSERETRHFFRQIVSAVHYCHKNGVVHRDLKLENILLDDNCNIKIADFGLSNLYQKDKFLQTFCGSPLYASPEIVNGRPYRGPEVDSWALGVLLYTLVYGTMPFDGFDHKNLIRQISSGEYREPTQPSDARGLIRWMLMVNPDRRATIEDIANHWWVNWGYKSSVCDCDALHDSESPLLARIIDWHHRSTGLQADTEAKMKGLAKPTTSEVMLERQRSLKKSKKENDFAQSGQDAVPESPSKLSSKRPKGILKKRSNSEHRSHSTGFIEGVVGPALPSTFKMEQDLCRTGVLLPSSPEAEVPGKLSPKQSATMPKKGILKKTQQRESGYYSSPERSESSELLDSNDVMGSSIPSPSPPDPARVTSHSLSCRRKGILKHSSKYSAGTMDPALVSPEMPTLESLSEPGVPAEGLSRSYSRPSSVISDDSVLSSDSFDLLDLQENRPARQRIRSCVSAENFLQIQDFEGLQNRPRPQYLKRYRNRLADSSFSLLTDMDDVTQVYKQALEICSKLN

[2] = biological target: T1, HA–NUAK1 (wild type), stably overexpressed in U2OS Flp/In cells (human); experiment: co-IP; HA–NUAK1 immunoprecipitated from U2OS cells stably expressing it after treatment of the cells with roscovitine for 1 h, immunoblot
[3] = biological target: T2, HA-tagged NUAK1 WT, transiently expressed in HEK-293 cells (human) (UniProt O60285); experiment: co-IP; HA-tagged NUAK1 (WT or mutant) transfected into HEK-293 cells, lysed after 36 h, immunoprecipitated from 1 mg of lysate, immunoblot for endogenous partners
T2 sequence: T1 sequence

[4] = biological target: T3, GST-tagged NUAK1 S476A+S480A (human) (UniProt O60285); experiment: co-IP; GST-tagged kinase (WT or mutant) transfected into HEK-293 cells, lysed after 36 h, GST-tagged protein 'immunoprecipitated' from 5 mg of lysate, immunoblot for endogenous partners
T3 sequence: T1 sequence with S476A, S480A

Substance	binding [1]	binding [2]	binding [3]	binding [4]
PLK1 (Polo kinase 1), endogenous (from UniProt P53350 1-603)	binds	no binding (condition: cells treated with roscovitine)	binds	–
PP1β^MYPT1 myosin phosphatase complex (from UniProt O14974 1-1030; P62140 1-327)	–	–	–	binds
